Laboratory results reported in US20240398920A1 (CYTOMX THERAPEUTICS, published 2024).
These are yes or no findings as the source states them, for the method shown. Some results given as binding are weak or reduced against the parent protein; the word gives no strength.

The chains behind the UniProt entries cited, without tags or fusion partners. Residues count along the entry.
UniProt P50284, residues 31-415: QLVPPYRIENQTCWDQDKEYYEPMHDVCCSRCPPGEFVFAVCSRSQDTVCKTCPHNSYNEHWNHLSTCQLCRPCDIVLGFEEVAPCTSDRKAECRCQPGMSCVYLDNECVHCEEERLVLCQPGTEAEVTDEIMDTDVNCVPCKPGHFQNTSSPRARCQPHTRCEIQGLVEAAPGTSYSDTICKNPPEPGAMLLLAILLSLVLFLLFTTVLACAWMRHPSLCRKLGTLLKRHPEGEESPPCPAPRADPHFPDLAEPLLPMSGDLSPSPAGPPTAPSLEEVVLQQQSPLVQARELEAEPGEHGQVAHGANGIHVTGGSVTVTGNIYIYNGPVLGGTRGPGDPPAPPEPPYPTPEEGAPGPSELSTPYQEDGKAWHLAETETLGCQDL
UniProt P36941, residues 31-435: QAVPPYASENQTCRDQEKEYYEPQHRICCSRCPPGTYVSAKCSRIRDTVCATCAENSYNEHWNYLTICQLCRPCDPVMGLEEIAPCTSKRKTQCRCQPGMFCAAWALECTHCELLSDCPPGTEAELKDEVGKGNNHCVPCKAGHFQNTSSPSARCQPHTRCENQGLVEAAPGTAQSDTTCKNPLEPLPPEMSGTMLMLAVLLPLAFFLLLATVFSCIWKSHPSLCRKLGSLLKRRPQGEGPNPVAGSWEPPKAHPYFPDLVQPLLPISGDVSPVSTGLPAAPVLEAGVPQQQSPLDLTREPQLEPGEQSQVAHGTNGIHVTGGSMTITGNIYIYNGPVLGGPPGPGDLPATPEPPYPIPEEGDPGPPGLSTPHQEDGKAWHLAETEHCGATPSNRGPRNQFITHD

What was measured:
[1] = molecular target: mouse lymphotoxin beta receptor (mouse) (UniProt P50284); test: flow cytometry on MC38 cells, detected with PE-conjugated anti-human CD258 (LIGHT) antibody
[2] = molecular target: human lymphotoxin beta receptor (LTbR) (human, UniProt P36941 31-435); test: flow cytometry on A375 cells, detected with PE-conjugated anti-human CD258 (LIGHT) antibody

B1: ProC1487 + uPa (ligand, not shown: small tags and cut ends)
chain: GGSQERRSHEVNPAAHLTGANSSLTGSGGPLLWETQLGLAFLRGLSYHDGALVVTKTGYYYIYSKVQLGGVGCPLGLAGTITHGLYKRTPRYPEELELLVSQQSPCGRATSSSRVWWDSSFLGGVVHLEAGEEVVVRVLGKRLVRLRDGTRSYFGAFMVSSAGGGSSGGS
Q: B1 was tested. Which binding [1] did it give?
A: The binding was “binds”.

Q: What about the binding [2] of the same binder?
A: Its binding is “binds”.
